{"source": "patent US20090312356A1", "about": "“NICOTINIC AGONISTS SELECTIVE FOR THE ALPHA7 RECEPTOR SUBTYPE, THE PROCESS FOR THE PREPARATION THEREOF AND PHARMACEUTICAL CO[…]” (priority 2006, published 2009)", "target": "T1, human α7 (hα7) receptors (Homo sapiens, UniProt P36544)", "T1 construct": "expressed in transfected cells", "assay": "whole cell patch-clamp electrophysiological recordings, hα7-expressing GH4C1 cells", "type": "cell-based", "settings": "200 μM, hα7 subtype, n=8", "note": "At least one compound was matched to its structure with a doubt left.", "data": [{"smiles": "CC(=O)OCC[N+](C)(C)C", "note": "[acetylcholine]", "values": [{"measurement": "mean inward current elicited", "result": "200±50", "unit": "pA"}]}]}
